{
  "source": "patent US4973545A",
  "about": "“Photographic couplers with aryloxysilyl groups” (Eastman Kodak Company, priority 1988, dated 1990)",
  "data": [
    {"test": "Sensitometric testing: photographic speed", "details": "C41 processing, step-wedge exposure", "values": [
      {"smiles": "CCCCCCCCCCC(Oc1ccc(S(=O)(=O)c2ccc(O)cc2)cc1)C(=O)Nc1ccc(Cl)c(NC2=NN(c3c(Cl)cc(Cl)cc3Cl)C(=O)C2)c1", "note": "(stereo not drawn) [Coupler C-4]", "Photographic speed": 317},
      {"smiles": "CCCCCCCCCCC(Oc1ccc(S(=O)(=O)c2ccc(O)cc2)cc1)C(=O)Nc1ccc(CCCc2n[nH]c3c(Cl)c(C)nn23)cc1", "note": "(stereo not drawn) [Coupler C-1]", "Photographic speed": 298},
      {"smiles": "CCCCCCCCCCCCC(Oc1ccc(O[Si](C)(C)C(C)(C)C)c(C(C)(C)C)c1)C(=O)Nc1ccc(Cl)c(NC2=NN(c3c(Cl)cc(Cl)cc3Cl)C(=O)C2)c1", "note": "(stereo not drawn) [Coupler 3]", "Photographic speed": 311},
      {"smiles": "CCCCCCCCCCC(Oc1ccc(S(=O)(=O)c2ccc(O[Si](C)(C)C(C)(C)C)cc2)cc1)C(=O)Nc1ccc(Cl)c(NC2=NN(c3c(Cl)cc(Cl)cc3Cl)C(=O)C2)c1", "note": "(stereo not drawn) [Coupler 4]", "Photographic speed": 317},
      {"smiles": "CCCCCCCCCCCCC(Oc1ccc(O)c(C(C)(C)C)c1)C(=O)Nc1ccc(Cl)c(NC2=NN(c3c(Cl)cc(Cl)cc3Cl)C(=O)C2)c1", "note": "(stereo not drawn) [Coupler C-3]", "Photographic speed": 316},
      {"smiles": "CCCCCCCCCCC(Oc1ccc(S(=O)(=O)c2ccc(O[Si](C)(C)C(C)(C)C)cc2)cc1)C(=O)Nc1ccc(CCCc2n[nH]c3c(Cl)c(C)nn23)cc1", "note": "(stereo not drawn) [Coupler 1]", "Photographic speed": 321}
    ]}
  ]
}
